Laboratory results published in ChEMBL document CHEMBL4190192, “Interaction of 7-Alkoxycoumarins with the Aryl Hydrocarbon Receptor” (J Nat Prod, 2017).

Assays:
[1] = target: T1, Aryl hydrocarbon receptor (Homo sapiens, UniProt P35869); assay: Antagonist activity at AhR (unknown origin) expressed in mouse H1L1.1c2 cells assessed as inhibition of FICZ-induced AhR activation at 1 to 100 uM after 8 to 10 hrs by luciferase reporter gene assay; assay type: cell-based
T1 sequence (P35869 whole entry): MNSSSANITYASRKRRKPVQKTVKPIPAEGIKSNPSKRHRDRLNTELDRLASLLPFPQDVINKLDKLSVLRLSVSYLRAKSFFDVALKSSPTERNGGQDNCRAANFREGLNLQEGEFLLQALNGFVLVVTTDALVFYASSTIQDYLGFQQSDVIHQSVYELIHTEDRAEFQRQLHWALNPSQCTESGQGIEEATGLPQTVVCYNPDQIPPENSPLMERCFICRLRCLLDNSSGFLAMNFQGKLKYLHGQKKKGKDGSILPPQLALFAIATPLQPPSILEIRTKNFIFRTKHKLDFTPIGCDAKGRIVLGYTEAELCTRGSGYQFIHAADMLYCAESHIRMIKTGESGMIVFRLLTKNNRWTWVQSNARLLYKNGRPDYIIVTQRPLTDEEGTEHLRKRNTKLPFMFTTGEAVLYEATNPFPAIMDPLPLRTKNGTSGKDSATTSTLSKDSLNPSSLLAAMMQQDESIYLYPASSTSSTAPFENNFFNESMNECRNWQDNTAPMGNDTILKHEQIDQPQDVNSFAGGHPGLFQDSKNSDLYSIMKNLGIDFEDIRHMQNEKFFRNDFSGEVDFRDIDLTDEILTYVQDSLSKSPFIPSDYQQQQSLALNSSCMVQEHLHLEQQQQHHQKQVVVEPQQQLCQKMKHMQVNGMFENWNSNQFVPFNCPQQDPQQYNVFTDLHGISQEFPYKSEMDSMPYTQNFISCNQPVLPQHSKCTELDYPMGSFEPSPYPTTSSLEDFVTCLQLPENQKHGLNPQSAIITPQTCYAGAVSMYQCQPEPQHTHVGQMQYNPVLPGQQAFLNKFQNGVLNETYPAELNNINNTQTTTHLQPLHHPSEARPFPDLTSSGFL

[2] = target: T1, Aryl hydrocarbon receptor; assay: Agonist activity at AhR (unknown origin) expressed in mouse H1L1.1c2 cells at 100 uM after 8 to 10 hrs by luciferase reporter gene assay; assay type: cell-based

O=c1ccc2ccc(OCc3ccccc3)cc2o1 [7-BENZYLOXYCOUMARIN]
inhibition (INH) [1]: Not Active
Activity [2]: Active
